From the supplement of paper PMC3334620
In all, about 33,000 sequences were measured (“E-score (-0.5 to 0.5)”: median about -0.015, highest 2% from about 0.3 on). The list shows a part of the results.

These sequences were tested against T1, Abf1 (UniProt P14164) (assay: PBM E-score (8-mer binding enrichment) (E-score (-0.5 to 0.5)); higher = stronger / more preferred TF binding). Settings: protein concentration: 200 nM; construct: GST-full length.
T1 sequence: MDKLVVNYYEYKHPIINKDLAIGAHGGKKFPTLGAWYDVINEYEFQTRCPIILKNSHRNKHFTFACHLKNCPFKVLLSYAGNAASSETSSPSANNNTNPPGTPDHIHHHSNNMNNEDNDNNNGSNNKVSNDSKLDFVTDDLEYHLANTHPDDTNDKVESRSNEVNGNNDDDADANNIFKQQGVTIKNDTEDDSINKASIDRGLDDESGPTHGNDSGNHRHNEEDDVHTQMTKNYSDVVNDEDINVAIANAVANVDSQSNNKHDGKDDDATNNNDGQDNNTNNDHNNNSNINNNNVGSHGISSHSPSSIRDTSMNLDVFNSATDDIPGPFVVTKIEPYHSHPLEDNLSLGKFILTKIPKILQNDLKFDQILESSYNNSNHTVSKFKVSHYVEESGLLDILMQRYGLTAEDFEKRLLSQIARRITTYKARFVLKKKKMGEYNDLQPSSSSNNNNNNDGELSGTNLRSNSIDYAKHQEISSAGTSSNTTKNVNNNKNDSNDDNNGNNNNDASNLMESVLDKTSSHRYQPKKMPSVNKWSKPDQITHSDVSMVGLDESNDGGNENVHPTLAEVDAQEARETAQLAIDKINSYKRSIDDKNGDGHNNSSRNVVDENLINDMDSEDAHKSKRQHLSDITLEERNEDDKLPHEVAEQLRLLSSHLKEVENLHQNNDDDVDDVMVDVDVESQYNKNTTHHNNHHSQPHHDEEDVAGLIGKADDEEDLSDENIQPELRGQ
Procedure, shortened: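 PURExpress in vitro transcription/translation supplied GST-tagged yeast transcription factors, either full-length or DNA-binding domain. Applied at about 100-200 nM to universal all-10-mer Agilent arrays double-stranded by primer extension, the bound protein was detected with fluorescent anti-GST. E-scores, modified Wilcoxon-Mann-Whitney statistics, were given by the Universal PBM Analysis Suite to ungapped eight-base words pooled with their reverse complements after masliner normalisation.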

Compared with AATCCATT, AGGCCGAT is lower in “PBM E-score” value: 0.00817 for the first, -0.057 for the second.

Going from AGCGCTGG to CAACTAGG, the “PBM E-score” value rises from -0.102 to 0.0136.

Compared with GATGCAGC, ATACATCC is higher in “PBM E-score” value: -0.132 for the first, -0.115 for the second.

Compared with CAATTTCC, CCGTCTTC is higher in “PBM E-score” value: -0.0512 for the first, 0.0806 for the second.

Going from AATTGCCT to ACGGAGAA, the “PBM E-score” value rises from -0.00284 to 0.117.

First: AGACCCAT
Second: CTACCTGA
The “PBM E-score” value of the first is higher: -0.134 for the first, -0.192 for the second.

Going from CACCAAAG to CTCCCTGA, the “PBM E-score” value falls from -0.0312 to -0.205.

Going from AAGCTAAC to ATATTGAG, the “PBM E-score” value rises from 0.0254 to 0.0975.

Going from GCAGCAAC to TATGTCCA, the “PBM E-score” value falls from 0.06 to -0.0663.

First: ATGAACCC
Second: CACTTTGC
The “PBM E-score” value of the first is lower: -0.0465 for the first, 0.137 for the second.

Compared with CGGGAGCA, GGTGCAGA is lower in “PBM E-score” value: -0.228 for the first, -0.244 for the second.

Compared with ACGCTTCT, CCCGTACA is higher in “PBM E-score” value: -0.0563 for the first, 0.263 for the second.

Compared with CAAATATC, GTACCAGA is lower in “PBM E-score” value: 0.275 for the first, 0.033 for the second.

First: GATAGCTA
Second: CGACTGAC
The “PBM E-score” value of the first is lower: -0.0725 for the first, 0.0955 for the second.

First: ATCACTCC
Second: CACGCCCC
The “PBM E-score” value of the first is higher: 0.345 for the first, -0.136 for the second.

First: ATACGCAG
Second: TGGTTTAA
The “PBM E-score” value of the first is lower: -0.00996 for the first, 0.196 for the second.

Compared with ATCTCGTG, ATTCCCCC is lower in “PBM E-score” value: 0.113 for the first, -0.197 for the second.

Compared with CAATCTTC, GCCAACAC is lower in “PBM E-score” value: 0.135 for the first, 0.102 for the second.

Compared with GAGCTGGA, GTGCAGTA is higher in “PBM E-score” value: -0.284 for the first, -0.198 for the second.

Compared with ATCTCTGC, AGATAGCG is higher in “PBM E-score” value: 0.0352 for the first, 0.0758 for the second.

First: AACGACCG
Second: AGTAAATA
The “PBM E-score” value of the first is lower: -0.0233 for the first, 0.103 for the second.

Compared with CTGGGCCC, CTACGAGC is higher in “PBM E-score” value: -0.174 for the first, 0.0233 for the second.

Compared with CCTAGTCG, ATATTTTC is higher in “PBM E-score” value: -0.077 for the first, 0.0192 for the second.

Compared with ACGCTGTC, AAGGCCTC is higher in “PBM E-score” value: -0.0257 for the first, -0.0142 for the second.

Compared with ACTCAAGA, CTGCACAC is higher in “PBM E-score” value: -0.102 for the first, -0.0257 for the second.

First: CGACGCTC
Second: GTTTGCAA
The “PBM E-score” value of the first is lower: -0.0203 for the first, 0.161 for the second.

Compared with AGGTTGTC, ACACTAGT is lower in “PBM E-score” value: -0.0329 for the first, -0.0582 for the second.

First: AATGCCCC
Second: CGATTCGA
The “PBM E-score” value of the first is lower: -0.14 for the first, 0.102 for the second.

First: CCGCGCAA
Second: AACAATGT
The “PBM E-score” value of the first is lower: -0.0625 for the first, -0.0137 for the second.

First: AACCTGTG
Second: AATTGGGA
The “PBM E-score” value of the first is lower: -0.0933 for the first, -0.0214 for the second.

First: TAACGCTA
Second: ATTTACTG
The “PBM E-score” value of the first is lower: -0.0187 for the first, 0.0186 for the second.

First: ATGGCTTG
Second: CTCGATGC
The “PBM E-score” value of the first is higher: -0.0149 for the first, -0.143 for the second.

First: GGCTACTA
Second: CATCCCAA
The “PBM E-score” value of the first is higher: 0.0597 for the first, 0.00786 for the second.

First: CAGACAGA
Second: GGTACGAC
The “PBM E-score” value of the first is lower: 0.00458 for the first, 0.185 for the second.

First: ACGATCAT
Second: CATATCTC
The “PBM E-score” value of the first is higher: 0.222 for the first, 0.0355 for the second.

Compared with CACTCCGC, GCACTCCA is lower in “PBM E-score” value: -0.149 for the first, -0.271 for the second.

Compared with ACTTTCAG, GCCGAGAC is lower in “PBM E-score” value: 0.0983 for the first, -0.156 for the second.

First: ATCGCTTG
Second: AAGTACGT
The “PBM E-score” value of the first is lower: 0.0683 for the first, 0.275 for the second.

First: CGGGATCA
Second: GTCGGCAC
The “PBM E-score” value of the first is higher: -0.1 for the first, -0.103 for the second.

Compared with ACGAATGC, AGGCAATC is lower in “PBM E-score” value: 0.185 for the first, -0.0105 for the second.

Going from CCACTGGG to CCTTTGTA, the “PBM E-score” value rises from -0.107 to 0.0245.

Compared with ACTTTTCA, AGCCCAAT is lower in “PBM E-score” value: 0.00097 for the first, -0.177 for the second.

First: CACGTGAA
Second: AGCACACG
The “PBM E-score” value of the first is higher: 0.213 for the first, -0.0648 for the second.

First: AAAATAAC
Second: CAGGGTAA
The “PBM E-score” value of the first is higher: 0.0816 for the first, -0.0268 for the second.

Compared with CAGGATCA, CCTACTAG is lower in “PBM E-score” value: -0.0317 for the first, -0.101 for the second.

First: CGCGGACC
Second: ATATGGCG
The “PBM E-score” value of the first is lower: -0.0283 for the first, 0.0184 for the second.

First: AGTGGATC
Second: GGTCAAGA
The “PBM E-score” value of the first is lower: -0.0658 for the first, -0.0306 for the second.

Going from CGGACATC to CGCCGAAA, the “PBM E-score” value rises from -0.169 to -0.0299.

Compared with TATGGAAA, AAACACAC is higher in “PBM E-score” value: 0.0575 for the first, 0.14 for the second.

Going from AAGCGATC to TAATCCTA, the “PBM E-score” value falls from 0.156 to -0.00132.

First: AACATGAT
Second: CACGAACC
The “PBM E-score” value of the first is higher: 0.222 for the first, 0.185 for the second.

First: CGCAAGAG
Second: GGGGCTAC
The “PBM E-score” value of the first is higher: -0.0232 for the first, -0.287 for the second.

Compared with GGATAGAC, ACGGTACT is higher in “PBM E-score” value: -0.0749 for the first, 0.114 for the second.

First: ACCTACAT
Second: TGGTACCA
The “PBM E-score” value of the first is higher: -0.00514 for the first, -0.123 for the second.

Going from ACGACATG to CAGCAATC, the “PBM E-score” value falls from 0.225 to -0.0343.

First: CATCAACG
Second: ACATCACT
The “PBM E-score” value of the first is lower: 0.208 for the first, 0.415 for the second.

First: GATAGGAC
Second: GGGTTAGA
The “PBM E-score” value of the first is lower: -0.123 for the first, -0.0709 for the second.

First: CAAGAAGA
Second: AAGAGTGT
The “PBM E-score” value of the first is higher: 0.0362 for the first, -0.052 for the second.

First: AAAACCCG
Second: CTATTCAC
The “PBM E-score” value of the first is lower: 0.0426 for the first, 0.121 for the second.

First: GCATTACA
Second: CAAAAACC
The “PBM E-score” value of the first is lower: -0.102 for the first, 0.116 for the second.

First: CTGACAGC
Second: GCTGGGGA
The “PBM E-score” value of the first is higher: -0.191 for the first, -0.203 for the second.

Compared with CTCGCACA, CGTTTTGC is lower in “PBM E-score” value: 0.00582 for the first, -0.0175 for the second.

Going from ATGTGTCC to GGCTGGAA, the “PBM E-score” value falls from -0.101 to -0.197.

Compared with CCAAAGTC, GGCCAAGA is lower in “PBM E-score” value: -0.116 for the first, -0.331 for the second.

Compared with CGTGAGAG, CCCTGCAG is lower in “PBM E-score” value: -0.0528 for the first, -0.165 for the second.

Going from CCTTCACG to AACTAAGT, the “PBM E-score” value falls from 0.225 to 0.0996.

Going from GTTTATCA to ACGAGTTG, the “PBM E-score” value falls from 0.304 to -0.00153.

Compared with ACGCGTTA, GGAATGCA is lower in “PBM E-score” value: 0.105 for the first, -0.1 for the second.

Going from ACCGAGCA to ACTCGCCA, the “PBM E-score” value rises from -0.0941 to -0.0285.

Going from ATCACCGC to AGAGACTG, the “PBM E-score” value falls from 0.311 to -0.262.

First: AGTTAGAT
Second: GGTTAGAC
The “PBM E-score” value of the first is lower: -0.0731 for the first, 0.0445 for the second.

Compared with AACCTCGG, CTCGCCTC is lower in “PBM E-score” value: -0.17 for the first, -0.268 for the second.

Going from CGCGCGGA to CTGCTCGC, the “PBM E-score” value falls from 0.103 to -0.15.

Compared with CTGGATAC, CTTAGAAA is lower in “PBM E-score” value: -0.0995 for the first, -0.151 for the second.

Compared with TAGCAGGA, AAGTTCTG is higher in “PBM E-score” value: -0.124 for the first, -0.0278 for the second.

First: CAGAGACC
Second: AATAGAAG
The “PBM E-score” value of the first is lower: -0.141 for the first, 0.0303 for the second.

First: ATTCTGCC
Second: GGGCGAAA
The “PBM E-score” value of the first is higher: 0.00271 for the first, -0.115 for the second.

Going from GGCCCTTA to ACGTAATA, the “PBM E-score” value rises from -0.233 to 0.252.

Going from ACAAAAGG to CTGAAGCA, the “PBM E-score” value falls from 0.0916 to -0.0488.

Compared with CTACCCAG, TAGCCTGA is lower in “PBM E-score” value: -0.0466 for the first, -0.119 for the second.

First: CCGCATCC
Second: GCAACTCA
The “PBM E-score” value of the first is lower: -0.0062 for the first, -0.00567 for the second.

First: AGGGTTCC
Second: ACAATAAC
The “PBM E-score” value of the first is lower: -0.115 for the first, 0.0884 for the second.

First: CCGGCGAC
Second: CTCTTCGC
The “PBM E-score” value of the first is lower: -0.156 for the first, -0.116 for the second.

Compared with CAGGGGAG, CGGTTACG is higher in “PBM E-score” value: -0.214 for the first, -0.0882 for the second.

Going from CACTTAGG to ATTATAGA, the “PBM E-score” value falls from 0.114 to 0.0267.

Compared with ATGTGAGG, AGGGGGAT is lower in “PBM E-score” value: 0.105 for the first, -0.171 for the second.
